These results are taken from article PMC8281026, “Peptide Based Inhibitors of Protein Binding to the Mitogen-Activated Protein Kinase Docking Groove” (Frontiers in Molecular Biosciences, 2021).

Amino acid sequences for entries named in this document (tags omitted).
UniProt P28482: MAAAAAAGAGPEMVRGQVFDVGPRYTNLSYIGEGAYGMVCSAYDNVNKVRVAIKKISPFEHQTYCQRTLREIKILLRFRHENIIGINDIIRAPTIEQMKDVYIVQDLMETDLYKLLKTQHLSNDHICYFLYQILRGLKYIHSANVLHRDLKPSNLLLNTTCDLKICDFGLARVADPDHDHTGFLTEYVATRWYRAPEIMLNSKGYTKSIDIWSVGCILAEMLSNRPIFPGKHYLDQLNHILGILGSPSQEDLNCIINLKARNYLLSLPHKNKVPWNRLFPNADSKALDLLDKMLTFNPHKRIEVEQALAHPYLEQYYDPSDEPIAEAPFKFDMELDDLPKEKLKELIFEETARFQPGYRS
UniProt Q16539: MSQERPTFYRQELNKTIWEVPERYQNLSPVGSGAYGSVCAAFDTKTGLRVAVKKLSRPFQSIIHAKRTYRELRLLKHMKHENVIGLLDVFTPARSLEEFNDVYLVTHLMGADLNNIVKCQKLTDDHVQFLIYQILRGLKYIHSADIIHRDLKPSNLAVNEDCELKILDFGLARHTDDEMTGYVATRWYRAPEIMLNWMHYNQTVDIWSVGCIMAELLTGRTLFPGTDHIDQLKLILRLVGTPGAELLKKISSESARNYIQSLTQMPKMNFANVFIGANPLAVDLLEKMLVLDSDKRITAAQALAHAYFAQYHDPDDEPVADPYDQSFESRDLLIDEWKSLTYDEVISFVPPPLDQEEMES

These are yes or no findings as the source states them, for the method shown. Some entries that bind do so weakly or less than the wild type.

In one assay the target is ERK2 (UniProt P28482). Briefly: fluorescence polarisation; competitive: complex of the MAPK with 50 nM Cf-RHDF at 60-80% complex formation titrated with increasing unlabeled peptide; 20 mM Tris pH 8.0, 100 mM NaCl, 0.05% Brij35, 2 mM TCEP; 384-well black plates; triplicates; constants are called Kd in Table 1 and Ki in the …; both purified. (In fluorescence polarisation assays a small probe gives low polarisation when free and higher when bound to something large.)

The next assay has as its target p38α (UniProt Q16539). The description is as above.

B1: Cf-RHDF (Cf-…) (peptide)
peptide: SLQRKKPPWLKLDIPSC
modifications: 5(6)-carboxyfluorescein (Cf) on the N-terminus
With B1, the binding result in the assay with ERK2 and in the assay with p38α was “binds” each time.
